# Measurements published in the supplement of paper PMC12889115.
# The list shows a part of the results. Values are raw readings; no control value is given beside them.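 Primary screen: polymyxin B was added at a level permeabilizing Salmonella outer membranes while sparing inner membranes. DMSO wells, both with and without polymyxin B, established maximum growth. Plate-to-plate variation meant each plate was ranked on its own, and the lowest-OD600 compounds were selected as hits.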
# Test system: Salmonella enterica serovar Typhimurium SL1344
# Experiment: bacterial growth OD600 after 18 h with compound and polymyxin B; higher = more bacterial growth (less inhibition)
# Settings: 50 µM, Mueller-Hinton broth
Compound,bacterial growth OD600 (polymyxin B 0.75 µg/mL),bacterial growth OD600 (polymyxin B 1 µg/mL)
CN(Cc1ccncn1)C(=O)c1csc2nc(-c3ccc(Cl)cc3)cn12,0.739,
Cc1cc2nc(N3CCC(C(=O)NC4CCOC(C)(C)C4)CC3)nc(C)c2cc1C (centres undefined),0.836,
CCOC(=O)C1(CCc2ccccc2)CCN(C(=O)c2ccc(OC)c(F)c2)CC1,,0.804
CCOC(=O)C1(Cc2ccc(F)cc2F)CCCN(C(=O)CCn2nccc2C)C1 (centres undefined),,1.31
CC(=O)c1ccc(OCc2cc(C(=O)N(C)Cc3cc(C)[nH]n3)no2)cc1,,1.01
COc1ccc(CC2(CCC(=O)N(C)CCc3ccc(OC)c(OC)c3)CCC(=O)N2)c(F)c1 (centres undefined),0.822,
Cc1oc(-c2ccccc2NS(C)(=O)=O)nc1CN(C)Cc1ccc(OC(F)(F)F)cc1,0.548,
COc1cccc(CN2CCC(C(=O)Nc3ccc(Oc4cccnc4)cc3)CC2)c1,,0.674
O=C(CCc1ccccc1)C(=O)N1CCC(n2nccc2NC(=O)C2CCOC2)CC1 (centres undefined),,1.14
CCc1ocnc1C(=O)NCc1cccnc1-n1cnc2ccccc21,0.915,
COc1ccc(CCNC(=O)CCC2(Cc3ccc(SC)cc3)CCC(=O)N2)cc1OC (centres undefined),0.827,
COc1ccc(CC2(CCC(=O)NCC3(N4CCOCC4)CCCCCC3)CCC(=O)N2)c(F)c1 (centres undefined),0.837,
C=CC[C@@H]1CC=C[C@@H](C)N1C(=O)CCCn1nnnc1CN1CCC(C)CC1,0.644,
CN(Cc1nc(Cc2cccc(C(F)(F)F)c2)no1)C1CC(C)(C)NC(C)(C)C1,,0.968
CC(C)N1CCN(C(=O)CC2(c3cccc(F)c3)CC(=O)N(Cc3cccnc3)C2=O)CC1 (centres undefined),0.758,
C=C(C)CN(C)C(=O)CC(c1cccc(Cl)c1)c1ccccc1O (centres undefined),,0.021
CC(C)Cn1cc(C(=O)NCC2(c3ccccc3)CCCCC2)c(=O)c(C(=O)N2CCCCCC2)c1,0.028,
COc1cccc(CCC(=O)N2CCC(CCC(=O)NCc3cccnc3)CC2)c1,,0.939
CCCS(=O)(=O)N1CCC2(CCCN(Cc3ccc(C(C)C)cc3)C2=O)C1 (centres undefined),,0.593

# Three entries from above, arranged by number of heavy atoms, descending:
Compound,bacterial growth OD600 (polymyxin B 0.75 µg/mL),bacterial growth OD600 (polymyxin B 1 µg/mL)
O=C(CCc1ccccc1)C(=O)N1CCC(n2nccc2NC(=O)C2CCOC2)CC1 (centres undefined),,1.14
CCOC(=O)C1(Cc2ccc(F)cc2F)CCCN(C(=O)CCn2nccc2C)C1 (centres undefined),,1.31
C=C(C)CN(C)C(=O)CC(c1cccc(Cl)c1)c1ccccc1O (centres undefined),,0.021
